Data: patent publication US20090137678A1, “HIGH YIELD SYNTHESIS METHODS FOR PRODUCING ORGANIC SALTS OF STRONTIUM” (priority 2005, published 2009)
Some results were stated once for a whole list of compounds, not compound by compound.

Assay: Decomposition of strontium salts of temperature-sensitive anions upon heating
Assay type: physicochemical
Details: forms strontium oxalate (ascorbate) or strontium salicylate (acetylsalicylate)

**Q.** Which “temperature above which the salt decomposes upon heating” value does the source give for “strontium acetyl-salicylate [strontium salt of acetylsalicylic acid]” here?
**A.** Its value is 40-50 °C.
